# The other results are listed elsewhere or left out.
# Compound: Cc1cc(ccc1-c1ccccc1)C(=O)N1CCCN(CC1)C(=O)CCl [compound 10]
# Test: probe-labelled cysteine peptide fold change vs DMSO (competition) (log2 fold change); higher = less target engagement (more negative = stronger competition)
# Settings: 10 µM; THP-1; incubation time: 4 h
# 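Note: competitive profiling in live THP-1 cells: cysteine peptides tagged with an iodoacetamide desthiobiotin (IA-DTB) probe, intensity after compound treatment relative to DMSO-treated cells.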
row,Target,probe-labelled cysteine peptide fold change
1,GNA15_P30679_345_LFSHYTCATDTQNIR (UniProt P30679),0.0165
2,GLCCI1_Q86VQ1_151_SPGSPVCR (UniProt Q86VQ1),0.0854
3,GNPTG_Q9UJJ9_157+169_LAHVSEPSTCVYALTFETPLVCHPHALLVYPTLPEALQR (UniProt Q9UJJ9),0.245
4,GPD1L_Q8N335_9_VCIVGSGNWGSAVAK (UniProt Q8N335),-0.117
5,GPSM3_Q9Y4H4_116_ATFYTPQNPSSLAPAPLRPLEDREQLYSTILSHQCQR (UniProt Q9Y4H4),0.138
6,GPD2_P43304_285_CVINATGPFTDSVR (UniProt P43304),0.183
7,GOLGA3_Q08378_769_LGELQGEAASREDTICLLQNEK (UniProt Q08378),-0.084
8,GMFG_O60234_87+96_YVHDDGRVSYPLCFIFSSPVGCKPEQQMMYAGSK (UniProt O60234),-0.295
9,GOLGA3_Q08378_477_QSCWDLER (UniProt Q08378),0.504
10,GLG1_Q92896_118_LAEEESCR (UniProt Q92896),-0.263
11,GOT1_P17174_46_TDDCHPWVLPVVK (UniProt P17174),-0.00519
12,GNB1_P62873_271_ADQELMTYSHDNIICGITSVSFSK (UniProt P62873),0.196
13,GOSR1_O95249_34_LCTSYSHSSTR (UniProt O95249),0.123
14,GOLGA4_Q13439_1085_ILLFGCEK (UniProt Q13439),-0.11
15,GMIP_Q9P107_274_AQEAEALYQACVR (UniProt Q9P107),0.181

# Excerpt: entries 7 to 8
row,Target,probe-labelled cysteine peptide fold change
7,GOLGA3_Q08378_769_LGELQGEAASREDTICLLQNEK (UniProt Q08378),-0.084
8,GMFG_O60234_87+96_YVHDDGRVSYPLCFIFSSPVGCKPEQQMMYAGSK (UniProt O60234),-0.295

# Reference: the supplement of paper PMC12067093, “Discovery and optimisation of a covalent ligand for TRIM25 and its application to targeted protein ubiquitination” (Chemical Science, 2025)
